The test system of the test is L1210 leukemia ip in BDF1 mice, survival T/C. Nature of the test: NCI In Vivo Anticancer Drug Screen. Data for tumor model L1210 Leukemia (intraperitoneal) in B6D2F1 (BDF1) mice. The note with it: higher T/C = longer survival.

Each structure is given as a SMILES string. The list does not hold the whole screen: it gathers tests that were run many times, whatever their T/C, doses with no T/C, and many T/C values between a quarter and a half above the control. Other doses and runs of a compound stand elsewhere. T/C: endpoint of the treated group in % of that of the vehicle group. Some doses have a count of surviving animals in place of a T/C: the source files T/C as zero there, which appears to mark a toxic dose or a test without result, not a measured value. Some doses without a T/C left all or most animals alive at the check, yet need not have been tolerated: the source hardly ever lists a survival T/C far under the control, and the zero likely stands for such cases as well. Counts of survivors are from the toxicity check (mostly the fifth day) where no day follows; animals may have died later. Schedules are NCI's codes, taken here to give the interval after Q, in days (D) or hours (H), and the number of doses after X. Some schedule codes hold Z or #, which are not explained here. Some entries were tested several times; the values are given in rising order. Where survival is the endpoint, the PubChem record calls one and a half times the control and up active, and a quarter to a half above the control has no call in these data; cut-offs in other NCI protocols can differ. Some T/C values carry the count of animals alive at the toxicity check (mostly the fifth day); where none is given, no animal had died by that day. Signs of the kind (2×) stand for listed records that agree.

The values below come from PubChem BioAssay AID248 (DTP/NCI, 2004).

As to `CCCCCCCCCCCCCCCC(=O)OCC1OC(n2ccc(N)nc2=O)C(O)C1O` (stereo not drawn), the T/C is 132 and 145 % of control (T/C endpoint: mean survival time, dose: 5.0 mg/kg/injection, schedule: Q01DX005 (ip), vehicle: other); 141 % of control (T/C endpoint: mean survival time, dose: 6.25 mg/kg/injection, schedule: Q01DX001 (ip), vehicle: saline); 105 and 251 % of control (T/C endpoint: mean survival time, dose: 10.0 mg/kg/injection, schedule: Q01DX009 (ip), vehicle: saline with Tween-80, evaluated on day 5); 105 % of control (T/C endpoint: mean survival time, dose: 10.0 mg/kg/injection, schedule: Q01DX009 (ip), vehicle: saline with Tween-80, evaluated on day 45); 251 % of control (T/C endpoint: mean survival time, dose: 10.0 mg/kg/injection, schedule: Q01DX009 (ip), vehicle: saline with Tween-80, evaluated on day 60); 127 and 372 % of control (T/C endpoint: mean survival time, dose: 15.0 mg/kg/injection, schedule: Q01DX009 (ip), vehicle: saline with Tween-80, evaluated on day 5). Moreover, the T/C (T/C endpoint: mean survival time, dose: 15.0 mg/kg/injection, schedule: Q01DX009 (ip), vehicle: saline with Tween-80, evaluated on day 45) was 127 % of control; the T/C (T/C endpoint: mean survival time, dose: 15.0 mg/kg/injection, schedule: Q01DX009 (ip), vehicle: saline with Tween-80, evaluated on day 60) is 372 % of control; the T/C (T/C endpoint: mean survival time, dose: 20.0 mg/kg/injection, schedule: Q12HX008 (ip), vehicle: other, evaluated on day 60) is 283 and 402 % of control; the T/C (T/C endpoint: mean survival time, dose: 20.0 mg/kg/injection, schedule: Q12HX008 (ip), vehicle: other, evaluated on day 90) was 292 and 651 % of control [9 of 10 alive]; the T/C (T/C endpoint: mean survival time, dose: 25.0 mg/kg/injection, schedule: Q08DX008 (ip), vehicle: other) is 144 % of control; the T/C (T/C endpoint: mean survival time, dose: 25.0 mg/kg/injection, schedule: Q12HX008 (ip), vehicle: other, evaluated on day 60) is 437 and 504 % of control. The T/C runs as follows: (T/C endpoint: mean survival time, dose: 25.0 mg/kg/injection, schedule: Q12HX008 (ip), vehicle: other, evaluated on day 90) 348 and 691 % of control; (T/C endpoint: mean survival time, dose: 30.0 mg/kg/injection, schedule: Q01DX005 (ip), vehicle: other, evaluated on day 45) 267, 289, 294 % of control; (T/C endpoint: mean survival time, dose: 30.0 mg/kg/injection, schedule: Q01DX005 (ip), vehicle: other, evaluated on day 60) 313 and 325 % of control; (T/C endpoint: mean survival time, dose: 30.0 mg/kg/injection, schedule: Q12HX008 (ip), vehicle: other, evaluated on day 60) 388 and 527 % of control; (T/C endpoint: mean survival time, dose: 30.0 mg/kg/injection, schedule: Q12HX008 (ip), vehicle: other, evaluated on day 90) 260 and 406 % of control; (T/C endpoint: mean survival time, dose: 54.0 mg/kg/injection, schedule: Q01DX009 (oral), vehicle: saline with Tween-80) 127 % of control. In addition, the T/C was 127 % of control (T/C endpoint: mean survival time, dose: 80.0 mg/kg/injection, schedule: Q01DX009 (oral), vehicle: saline with Tween-80); 224 and 357 % of control (T/C endpoint: mean survival time, dose: 100.0 mg/kg/injection, schedule: Q01DX001 (ip), vehicle: saline with Tween-80, evaluated on day 5); 168, 220, 222, 224, 257, 260, 290 % of control (T/C endpoint: mean survival time, dose: 100.0 mg/kg/injection, schedule: Q01DX001 (ip), vehicle: saline with Tween-80, evaluated on day 45); 290, 302, 357 % of control (T/C endpoint: mean survival time, dose: 100.0 mg/kg/injection, schedule: Q01DX001 (ip), vehicle: saline with Tween-80, evaluated on day 60); 293, 303, 306 % of control (T/C endpoint: mean survival time, dose: 150.0 mg/kg/injection, schedule: Q01DX001 (ip), vehicle: other, evaluated on day 45); 289 and 570 % of control (T/C endpoint: mean survival time, dose: 150.0 mg/kg/injection, schedule: Q01DX001 (ip), vehicle: other, evaluated on day 60). The T/C reads like this: (T/C endpoint: mean survival time, dose: 150.0 mg/kg/injection, schedule: Q01DX001 (ip), vehicle: saline with Tween-80, evaluated on day 5) 237 and 445 % of control; (T/C endpoint: mean survival time, dose: 150.0 mg/kg/injection, schedule: Q01DX001 (ip), vehicle: saline with Tween-80, evaluated on day 45) 237, 323 (2×), 325, 342, 363, 382 % of control; (T/C endpoint: mean survival time, dose: 150.0 mg/kg/injection, schedule: Q01DX001 (ip), vehicle: saline with Tween-80, evaluated on day 60) 341, 400, 445 % of control; (T/C endpoint: mean survival time, dose: 200.0 mg/kg/injection, schedule: Q01DX001 (ip), vehicle: other, evaluated on day 45) 272, 281, 307 % of control; (T/C endpoint: mean survival time, dose: 200.0 mg/kg/injection, schedule: Q01DX001 (ip), vehicle: other, evaluated on day 60) 294 and 450 % of control; (T/C endpoint: mean survival time, dose: 200.0 mg/kg/injection, schedule: Q01DX001 (ip), vehicle: saline with Tween-80, evaluated on day 45) 310, 359, 369 [9 of 10 alive], 452 % of control. The T/C (T/C endpoint: mean survival time, dose: 200.0 mg/kg/injection, schedule: Q01DX001 (ip), vehicle: saline with Tween-80, evaluated on day 60) was 378 and 386 % of control. The survivor count is, setting by setting: (T/C endpoint: mean survival time, dose: 200.0 mg/kg/injection, schedule: Q01DX005 (ip), vehicle: saline) 6 of 6; (T/C endpoint: mean survival time, dose: 800.0 mg/kg/injection, schedule: Q01DX001 (ip), vehicle: saline) 6 of 10; (T/C endpoint: median survival time, dose: 600.0 mg/kg/injection, schedule: Q01DX001 (ip), vehicle: saline) 8 of 8.
For the compound `C1CNC(NC23CC4CC(CC(C4)C2)C3)=N1`, the survivor count was 0 of 6 (T/C endpoint: mean survival time, dose: 200.0 mg/kg/injection, schedule: Q01DX009 (ip), vehicle: Klucel (hydroxypropylcellulose) (HPC)) and 0 of 6 (T/C endpoint: mean survival time, dose: 400.0 mg/kg/injection, schedule: Q01DX009 (ip), vehicle: Klucel (hydroxypropylcellulose) (HPC)).
Regarding `c1ccc(NC2CCN(C3(c4ccccc4)CCCCC3)CC2)cc1`, the survivor count is listed as 0 of 3 (T/C endpoint: mean survival time, dose: 200.0 mg/kg/injection, schedule: Q04DX002 (ip), vehicle: saline) and 0 of 3 (T/C endpoint: mean survival time, dose: 400.0 mg/kg/injection, schedule: Q04DX002 (ip), vehicle: saline).
In the case of `CCCOC(=O)CCl`, the survivor count by setting is: (T/C endpoint: mean survival time, dose: 200.0 mg/kg/injection, schedule: Q01DX001 (ip), vehicle: saline) 0 of 4; (T/C endpoint: mean survival time, dose: 400.0 mg/kg/injection, schedule: Q01DX001 (ip), vehicle: saline) 0 of 4.
As for `CCOP(=O)(OCC)C(C)C#N` (stereo not drawn), the survivor count reads like this: (T/C endpoint: mean survival time, dose: 60.0 mg/kg/injection, schedule: Q01DX001 (ip), vehicle: saline) 2 of 6; (T/C endpoint: mean survival time, dose: 75.0 mg/kg/injection, schedule: Q01DX001 (ip), vehicle: saline) 1 of 6; (T/C endpoint: mean survival time, dose: 150.0 mg/kg/injection, schedule: Q01DX001 (ip), vehicle: saline) 1 of 6; (T/C endpoint: mean survival time, dose: 300.0 mg/kg/injection, schedule: Q01DX001 (ip), vehicle: saline) 0 of 6.
As to `CSc1nc(C)c(C)[n+](C)n1`, where the note is “T/C endpoint: mean survival time, dose: 300.0 mg/kg/injection, schedule: Q01DX001 (ip), vehicle: saline with Tween-80”, the survivor count is on record as 1 of 6.
In the case of `O=C(Nc1ccc(C2=NCCN2)cc1)c1cc(C(=O)Nc2ccc(C3=NCCN3)cc2)cc(C(=O)Nc2ccc(C3=NCCN3)cc2)c1`, for the setting “T/C endpoint: mean survival time, dose: 2.8 mg/kg/injection, schedule: Q01DX Z (ip), vehicle: saline”, the survivor count is reported as 2 of 6.
Consider `CCCCCCCCCCCC[N+](C)(C)C.C[As](C)(=O)[O-]`, for which the survivor count was 0 of 3 (T/C endpoint: mean survival time, dose: 50.0 mg/kg/injection, schedule: Q01DX009 (ip), vehicle: saline); 0 of 3 and 5 of 6 (T/C endpoint: mean survival time, dose: 100.0 mg/kg/injection, schedule: Q01DX009 (ip), vehicle: saline); 0 of 6 (T/C endpoint: mean survival time, dose: 200.0 mg/kg/injection, schedule: Q01DX009 (ip), vehicle: saline); 0 of 6 (T/C endpoint: mean survival time, dose: 400.0 mg/kg/injection, schedule: Q01DX009 (ip), vehicle: saline).
`CC1CC(=O)C=C(c2ccccc2)O1` (stereo not drawn): the survivor count (T/C endpoint: mean survival time, dose: 300.0 mg/kg/injection, schedule: Q01DX009 (ip), vehicle: Klucel (hydroxypropylcellulose) (HPC)) is 2 of 6.
For the compound `O=C1OC(=O)C2C3C=CC(CC3)C12` (stereo not drawn), the survivor count was 0 of 6 (T/C endpoint: mean survival time, dose: 400.0 mg/kg/injection, schedule: Q04DX003 (ip), vehicle: Klucel (hydroxypropylcellulose) (HPC)) and 3 of 4 (T/C endpoint: mean survival time, dose: 400.0 mg/kg/injection, schedule: Q04DX003 (ip), vehicle: saline).
Take `CC/C(=N/N=C(N)N)c1ccc(NC(=O)Nc2ccc(/C(CC)=N/N=C(N)N)cc2)cc1`: the survivor count was 6 of 6 (T/C endpoint: mean survival time, dose: 20.0 mg/kg/injection, schedule: Q01DX009 (ip), vehicle: saline); 0 of 6 (T/C endpoint: mean survival time, dose: 40.0 mg/kg/injection, schedule: Q01DX009 (ip), vehicle: saline); 0 of 6 (T/C endpoint: mean survival time, dose: 80.0 mg/kg/injection, schedule: Q01DX009 (ip), vehicle: saline); 0 of 6 (T/C endpoint: mean survival time, dose: 160.0 mg/kg/injection, schedule: Q01DX009 (ip), vehicle: saline); 0 of 6 (T/C endpoint: mean survival time, dose: 320.0 mg/kg/injection, schedule: Q01DX009 (ip), vehicle: saline).
